doi:10.1101/2022.09.15.508097

Chains of the proteins cited; added tags and fusions are not shown. Lines headed by an entry give the natural chain unless they say otherwise; changes in a name come on top.
UniProt Q9C0D4: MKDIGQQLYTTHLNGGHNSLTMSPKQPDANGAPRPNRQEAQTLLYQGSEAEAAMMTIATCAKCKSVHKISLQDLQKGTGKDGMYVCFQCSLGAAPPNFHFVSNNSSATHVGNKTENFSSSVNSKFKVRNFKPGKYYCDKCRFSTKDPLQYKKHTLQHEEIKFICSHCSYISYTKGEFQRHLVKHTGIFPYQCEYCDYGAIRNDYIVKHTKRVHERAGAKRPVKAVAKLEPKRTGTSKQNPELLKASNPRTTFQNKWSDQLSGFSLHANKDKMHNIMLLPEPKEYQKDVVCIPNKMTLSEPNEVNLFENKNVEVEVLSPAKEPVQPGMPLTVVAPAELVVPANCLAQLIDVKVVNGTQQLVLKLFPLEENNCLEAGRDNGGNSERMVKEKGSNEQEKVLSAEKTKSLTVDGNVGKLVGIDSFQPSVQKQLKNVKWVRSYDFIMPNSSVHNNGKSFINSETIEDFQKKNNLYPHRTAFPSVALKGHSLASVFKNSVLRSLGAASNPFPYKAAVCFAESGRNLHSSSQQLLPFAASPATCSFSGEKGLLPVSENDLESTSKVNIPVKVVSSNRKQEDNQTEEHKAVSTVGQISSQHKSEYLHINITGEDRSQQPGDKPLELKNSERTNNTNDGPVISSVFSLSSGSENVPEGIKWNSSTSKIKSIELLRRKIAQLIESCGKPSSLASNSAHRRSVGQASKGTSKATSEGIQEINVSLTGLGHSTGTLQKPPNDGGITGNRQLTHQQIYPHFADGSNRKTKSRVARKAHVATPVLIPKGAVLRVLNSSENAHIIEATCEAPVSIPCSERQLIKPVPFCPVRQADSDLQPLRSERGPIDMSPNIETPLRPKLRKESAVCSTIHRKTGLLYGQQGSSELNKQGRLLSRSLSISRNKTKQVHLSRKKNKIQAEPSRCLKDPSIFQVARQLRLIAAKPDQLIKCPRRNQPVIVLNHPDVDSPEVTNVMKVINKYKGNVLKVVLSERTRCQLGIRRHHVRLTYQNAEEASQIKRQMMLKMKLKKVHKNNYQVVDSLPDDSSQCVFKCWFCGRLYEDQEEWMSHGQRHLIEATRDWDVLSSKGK

Assays:
Test in all cases: fluorescence microscopy-based interaction-trap
[1] = target: TetR-EYFP-ZNF518B^770–987 KSS/C (human) (UniProt Q9C0D4)
[2] = target: TetR-EYFP-ZNF518B^KSS/C (human) (UniProt Q9C0D4)
[3] = target: TetR-EYFP-ZNF518B^KSS/N (human) (UniProt Q9C0D4)
[4] = target: TetR-EYFP-ZNF518B^KSS/NC (human) (UniProt Q9C0D4)

Measured: binding

B1: Halo-CENP-B^133–599 (domain or fragment, UniProt P07199 133-599)
chain: VSCSGVARARARNAAPRTPAAPASPAAVPSEGSGGSTTGWRAREEQPPSVAEGYASQDVFSATETSLWYDFLPDQAAGLCGGDGRPRQATQRLSVLLCANADGSEKLPPLVAGKSAKPRAGQAGLPCDYTANSKGGVTTQALAKYLKALDTRMAAESRRVLLLAGRLAAQSLDTSGLRHVQLAFFPPGTVHPLERGVVQQVKGHYRQAMLLKAMAALEGQDPSGLQLGLTEALHFVAAAWQAVEPSDIAACFREAGFGGGPNATITTSLKSEGEEEEEEEEEEEEEEGEGEEEEEEGEEEEEEGGEGEELGEEEEVEEEGDVDSDEEEEEDEESSSEGLEAEDWAQGVVEAGGSFGAYGAQEEAQCPTLHFLEGGEDSDSDSEEEDDEEEDDEDEDDDDDEEDGDEVPVPSFGEAMAYFAMVKRYLTSFPIDDRVQSHILHLEHDLVHVTRKNHARQAGVRGLGHQS
modifications: Halo Tag TMR ligand on the Halo tag
binds: all assays above

These are yes or no findings as the source states them, for the method shown. Binding calls can cover weak binding; strength is not graded here.
